Consider 16 compounds from the supplement of paper PMC4604168 (melanoma cell lines).

Some of the results follow. Many values rest on one well or one pass, so single values are uncertain.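 The apoptosis fraction was the count of cleaved-PARP antibody-stained nuclei relative to all DNA-stained nuclei, imaged in 1,536-well plates. Screening doses were set so most cells survived, and baseline and induced cleaved-PARP levels vary greatly across cell lines.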

For this test, the system named is COLO792. Briefly: cleaved PARP positive nuclei fraction relative to DMSO control; melanoma cells; higher = more apoptosis. To be noted: library dose: low library concentration; 72 h.
Consider `OCCn1cc(-c2cnc3nnn(Cc4ccc5ncccc5c4)c3n2)cn1` + C/C(O)=C(\C#N)C(=O)Nc1cc(Br)ccc1Br [LFM-A13] (first compound 1 µM, partner dose 2 µM), for which the “cleaved PARP positive nuclei fraction” value came to 114%. With `C[As](C)SC[C@H](NC(=O)CC[C@H](N)C(=O)O)C(=O)NCC(=O)O` [Darinaparsin] + O=C1NC(=O)/C(=C/c2ccc(-c3ccc(F)cc3O)o2)S1 [AS252424] (first compound 0.4 µM, partner dose 1 µM) the figure was 199%; with `Nc1cccc2c1CN(C1CCC(=O)NC1=O)C2=O` (stereo unspecified) [lenalidomide] + Cc1cc(SCc2sc(-c3ccc(C(F)(F)F)c(F)c3)nc2C)ccc1OCC(=O)O [GW0742] (first compound 1 µM, partner dose 2 µM), 144%; with `C/C(O)=C(\C#N)C(=O)Nc1cc(Br)ccc1Br` + CCCCCCCCCCCC1=C(O)C(=O)C=C(O)C1=O [Embelin] (first compound 2 µM, partner dose 1.2 µM), 67.4%.

Consider `Cc1cc(SCc2sc(-c3ccc(C(F)(F)F)c(F)c3)nc2C)ccc1OCC(=O)O` + Cn1cc(/C=C2\C(=O)Nc3cccnc32)c2ccccc21 [GW441756] (first compound 2 µM, partner dose 0.4 µM), for which the “cleaved PARP positive nuclei fraction” value was 54.3%.

Turning to `C[As](C)SC[C@H](NC(=O)CC[C@H](N)C(=O)O)C(=O)NCC(=O)O` [Darinaparsin] + Cc1cc([N+](=O)[O-])ccc1NS(=O)(=O)c1cc(Cl)ccc1Cl [FH535] (first compound 0.4 µM, partner dose 1 µM), the “cleaved PARP positive nuclei fraction” value was 62.6%. Next, `C=CCn1c(=O)c2cnc(Nc3ccc(N4CCN(C)CC4)cc3)nc2n1-c1cccc(C(C)(C)O)n1` + O=C(Oc1ccc([N+](=O)[O-])cc1)N1CCC(C(O)(c2ccc3c(c2)OCO3)c2ccc3c(c2)OCO3)CC1 [JZL184] (first compound 0.02 µM, partner dose 1 µM): 77.5%.

With `C/C(O)=C(\C#N)C(=O)Nc1cc(Br)ccc1Br` + c1cc(-c2cnn3cc(-c4ccc(OCCN5CCCCC5)cc4)cnc23)ccn1 [Dorsomorphin] (first compound 2 µM, partner dose 0.4 µM), the “cleaved PARP positive nuclei fraction” value amounted to 100%. With `C/C(O)=C(\C#N)C(=O)Nc1cc(Br)ccc1Br` + O=C(Oc1ccc([N+](=O)[O-])cc1)N1CCC(C(O)(c2ccc3c(c2)OCO3)c2ccc3c(c2)OCO3)CC1 [JZL184] (first compound 2 µM, partner dose 1 µM) the figure was 50.1%; with `Cc1cc(SCc2sc(-c3ccc(C(F)(F)F)c(F)c3)nc2C)ccc1OCC(=O)O` + O=C1NC(=O)/C(=C/c2ccc(-c3ccc(F)cc3O)o2)S1 [AS252424] (first compound 2 µM, partner dose 1 µM), 119%.

For `CCc1ccc(CCOc2ccc(CC3SC(=O)NC3=O)cc2)nc1` (stereo unspecified) [pioglitazone] + Cc1cc(SCc2sc(-c3ccc(C(F)(F)F)c(F)c3)nc2C)ccc1OCC(=O)O [GW0742] (first compound 2 µM, partner dose 2 µM), the “cleaved PARP positive nuclei fraction” value was found to be 70.8%. With `COc1ccc2c(c1)CCC1C2CCC2(C)C(NCCCCCCN3C(=O)C=CC3=O)CCC12` (stereo unspecified) + O=C(Oc1ccc([N+](=O)[O-])cc1)N1CCC(C(O)(c2ccc3c(c2)OCO3)c2ccc3c(c2)OCO3)CC1 [JZL184] (first compound 0.4 µM, partner dose 1 µM) the figure was 126%; with `Cc1cc(SCc2sc(-c3ccc(C(F)(F)F)c(F)c3)nc2C)ccc1OCC(=O)O` + O=C(Oc1ccc([N+](=O)[O-])cc1)N1CCC(C(O)(c2ccc3c(c2)OCO3)c2ccc3c(c2)OCO3)CC1 [JZL184] (first compound 2 µM, partner dose 1 µM), 189%; with `C/C(O)=C(\C#N)C(=O)Nc1cc(Br)ccc1Br` + Cc1cc([N+](=O)[O-])ccc1NS(=O)(=O)c1cc(Cl)ccc1Cl [FH535] (first compound 2 µM, partner dose 1 µM), 122%. With `NCC(=O)Nc1ccc(-n2nc(C(F)(F)F)cc2-c2ccc3c(ccc4ccccc43)c2)cc1` + O=C(Oc1ccc([N+](=O)[O-])cc1)N1CCC(C(O)(c2ccc3c(c2)OCO3)c2ccc3c(c2)OCO3)CC1 [JZL184] (first compound 1 µM, partner dose 1 µM), the “cleaved PARP positive nuclei fraction” value is 121%. On to `O=C(O)C(=O)Nc1sc2c(c1C(=O)O)CCNC2` + C/C(O)=C(\C#N)C(=O)Nc1cc(Br)ccc1Br [LFM-A13] (first compound 1.66667 µM, partner dose 2 µM), for which the “cleaved PARP positive nuclei fraction” value came out at 80.9%.
